This note sets out measurements from the supplement of paper PMC6331611.

Counter-ions that a name gives are not always drawn. ± gives the standard deviation of the averaged measurements. Whole data set: some 1,600 compounds, median “normalized growth (OD600, IQM-normalized) in LPM” near 1, cut for the lowest 2% near 0.014. This is one part of the list.

This experiment concerns Salmonella enterica serovar Typhimurium SL1344. Description: normalized growth (OD600, IQM-normalized) in LPM (fraction of plate interquartile mean); higher = more bacterial growth (less inhibition). The conditions noted are these: LPM pH 5.8; 10 µM; 16 h.
Compound `CCC[C@@H]1C[C@@H](C(=O)N[C@@H]([C@H]2O[C@H](SC)[C@H](O)[C@@H](O)[C@H]2O)[C@@H](C)O)N(C)C1` showed a normalized growth of 1.096 ± 0.0085. Then `CC/C=C\C/C=C\C/C=C\C/C=C\C/C=C\C/C=C\CCC(=O)O`, with 1.01 ± 0.011; and `CCCCC(CC)COc1ccc(-c2nc(-c3ccc(OC)cc3)nc(-c3ccc(OCC(CC)CCCC)cc3O)n2)c(O)c1` (stereo not given), with 1.05 ± 0.035; and `O=c1cc[nH]c(=O)[nH]1`, with 1.06 ± 0.04. `CC(C)(C)CC(C)(C)c1ccc(OCCOCC[N+](C)(C)Cc2ccccc2)cc1` showed a normalized growth of 0.93 ± 0.039. Next, `Cn1nnc2c(C(N)=O)ncn2c1=O`: 0.923 ± 0.018; `CCCCOc1ccc(C(=O)CCN2CCCCC2)cc1`: 1.05 ± 0.086; `C=C1CC[C@H](O)C/C1=C/C=C1\CCC[C@]2(C)[C@@H]([C@H](C)/C=C/[C@H](C)C(C)C)CC[C@@H]12`: 1.04 ± 0.046. Consider `Nc1nc(N)c2nc(-c3ccccc3)c(N)nc2n1`, for which the normalized growth came out at 0.857 ± 0.017. With `CC(C)(C)NC(=O)[C@H]1CC[C@H]2[C@@H]3CC[C@H]4NC(=O)C=C[C@]4(C)[C@H]3CC[C@]12C`, the normalized growth was 1.11 ± 0.1. Then `C[N+](C)(C)C[C@H](O)CC(=O)[O-]`, with 1.04 ± 0.086. Take `CC(CN(C)C)CN1c2ccccc2CCc2ccccc21` (stereo not given): the normalized growth worked out at 1.09 ± 0.02. Then `OC(CCN1CCCC1)(c1ccccc1)C1CCCCC1` (stereo not given), with 1.02 ± 0.019; and `CC(C)NCC(O)COc1cccc2[nH]ccc12` (stereo not given), with 0.954 ± 0.05; and `CC1(C)O[C@@H]2C[C@H]3[C@@H]4C[C@H](F)C5=CC(=O)C=C[C@]5(C)[C@H]4[C@@H](O)C[C@]3(C)[C@]2(C(=O)CO)O1`, with 0.921 ± 0.042. As to `CN(Cc1cc(Br)cc(Br)c1N)C1CCCCC1`, the normalized growth is 1.06 ± 0.025. Then `C[C@H](CS)C(=O)N1CCC[C@H]1C(=O)O`, with 0.976 ± 0.029; and `NCCc1ccc(O)c(O)c1`, with 1.02 ± 0.056. Compound `CC[C@H](c1ccc(O)cc1)[C@@H](CC)c1ccc(O)cc1` yielded a normalized growth of 1.13 ± 0.018. Next, `Cc1c(Nc2ncccc2C(=O)O)cccc1C(F)(F)F`: 1.04 ± 0.041; `C[C@]12CCC(=O)C=C1CC[C@@H]1[C@@H]2[C@@H](O)C[C@@]2(C)[C@H]1CC[C@]2(O)C(=O)COP(=O)(O)O`: 0.979 ± 0.036. Next, `CC(=O)OCC(=O)[C@@]1(O)CC[C@H]2[C@@H]3CCC4=CC(=O)C=C[C@]4(C)[C@H]3[C@@H](O)C[C@@]21C`: 1.03 ± 0.054; `CC#C[C@]1(O)CC[C@H]2[C@@H]3CCC4=CC(=O)CCC4=C3[C@@H](c3ccc(N(C)C)cc3)C[C@@]21C`: 1.02 ± 0.019; `COc1ccc(Cl)cc1C(=O)NCCc1ccc(S(=O)(=O)NC(=O)NC2CCCCC2)cc1`: 0.824 ± 0.19.

Compound `CCCCCCNC(=O)n1cc(F)c(=O)[nH]c1=O` came in with a normalized growth of 0.007569 ± 7.1e-05. Then `CCCCCCCC/C=C\CCCCCCCC(=O)O.NCCO`, with 0.717 ± 0.33; and `COc1cc(NS(=O)(=O)c2ccc(N)cc2)ncn1`, with 1.34 ± 0.16. Next, `CC1(C)O[C@@H]2C[C@H]3[C@@H]4C[C@H](F)C5=CC(=O)C=C[C@]5(C)[C@@]4(F)[C@@H](O)C[C@]3(C)[C@]2(C(=O)CO)O1`: 1.2 ± 0.11; `Cc1cc(C)nc(NS(=O)(=O)c2ccc(N)cc2)n1`: 0.88 ± 0.14; `CN(C(=O)CN(CCO)CC(=O)N(C)C(C)(C)Cc1ccccc1)C(C)(C)Cc1ccccc1`: 1.01 ± 0.028.

Compound `COC(=O)N/N=C/c1c[n+]([O-])c2ccccc2[n+]1[O-]` registered a normalized growth of 0.55 ± 0.04. `CC(C)[C@H](N)C(=O)OCCOCn1cnc2c(=O)nc(N)[nH]c21` came in with a normalized growth of 1.13 ± 0.026. Next, `C[C@@H]1C/C=C/C=C/C=C/C=C/[C@H](O[C@@H]2O[C@H](C)[C@@H](O)[C@H](N)[C@@H]2O)C[C@@H]2O[C@](O)(C[C@@H](O)C[C@H]3O[C@@H]3/C=C/C(=O)O1)C[C@H](O)[C@H]2C(=O)O`: 1.06 ± 0.045; `O=C(O)c1ccc[n+]([O-])c1`: 1.29 ± 0.093.

As to `NC[C@H]1O[C@H](O[C@H]2[C@H](O)[C@@H](O[C@H]3O[C@H](CO)[C@@H](O)[C@H](N)[C@H]3O)[C@H](N)C[C@@H]2N)[C@H](N)C[C@@H]1O`, the normalized growth turned out to be 1.2 ± 0.05. Then `CCOC(=O)Nc1nc2ccccc2[nH]1`, with 0.857 ± 0.03. Next, `CC(=O)Nc1ccc(OC(=O)c2ccccc2O)cc1`: 1.02 ± 0.058; `COc1cc2nc(N3CCN(C(=O)C4COc5ccccc5O4)CC3)nc(N)c2cc1OC` (stereo not given): 0.796 ± 0.019; `N[C@H]1CONC1=O`: 1.05 ± 0.036. Next, `CCCCC1C(=O)N(c2ccccc2)N(c2ccc(O)cc2)C1=O` (stereo not given): 0.8937 ± 0.0078; `O=C(CCBr)N1CCN(C(=O)CCBr)CC1`: 0.943 ± 0.05; `CCN(CC)CCOCCOC(=O)C1(c2ccccc2)CCCC1`: 1.01 ± 0.041. As to `CC#CCn1c(N2CCC[C@@H](N)C2)nc2c1c(=O)n(Cc1nc(C)c3ccccc3n1)c(=O)n2C`, the normalized growth is 0.926 ± 0.058. Then `CC(C)(CO)[C@@H](O)C(=O)NCCC(=O)O` [PANTOTHENIC ACID(d) Na salt], with 1.27 ± 0.039; and `CCN(CCCCOC(=O)c1ccc(OC)c(OC)c1)C(C)Cc1ccc(OC)cc1` (stereo not given), with 1.03 ± 0.021; and `Cc1cc(C(C)(C)C)cc(C)c1CC1=NCCN1`, with 0.973 ± 0.035. Regarding `CCN(CC)C(=O)C1(c2ccccc2)CC1CN` (stereo not given), the normalized growth came to 1.13 ± 0.043. `CCCCCCOc1ccccc1C(N)=O`: the normalized growth is 1.01 ± 0.048. On to `CCN(CC)CCNC(=O)c1ccc(N)cc1`, for which the normalized growth was determined as 0.93 ± 0.051. Next, `NC[C@H](O)c1ccc(O)c(O)c1`: 0.942 ± 0.015.
